Drawing on article PMC8799735, this text covers binding for 1 molecule.

Protein sequences, listed by entry. Tags and fused reporters are not part of them.
UniProt Q00266: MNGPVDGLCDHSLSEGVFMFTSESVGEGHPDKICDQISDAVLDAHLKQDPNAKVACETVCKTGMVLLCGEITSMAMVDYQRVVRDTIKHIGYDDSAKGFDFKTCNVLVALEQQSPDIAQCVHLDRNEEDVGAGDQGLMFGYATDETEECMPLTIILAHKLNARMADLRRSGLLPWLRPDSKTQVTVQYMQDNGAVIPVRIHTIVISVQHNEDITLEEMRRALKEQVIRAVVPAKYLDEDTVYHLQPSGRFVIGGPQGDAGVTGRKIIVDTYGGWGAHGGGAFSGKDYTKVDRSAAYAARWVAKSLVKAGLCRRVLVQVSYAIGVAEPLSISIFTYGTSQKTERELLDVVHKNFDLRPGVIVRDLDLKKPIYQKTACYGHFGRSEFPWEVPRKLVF

Results are given in words; binding and its absence hold for the method and conditions named. In cells and extracts the contact can be indirect. A yes stands for co-enrichment or nearness to the bait. Other partners may have been found.

In the experiment the target is Methionine adenosyltransferase α1 (MATα1), endogenous human (human (endogenous in human hepatocytes and liver)) (UniProt Q00266). Briefly: affinity purification with mass spectrometry; normal human liver lysates (1000 μg), IP with anti-MATα1 antibody, on-bead trypsin/Lys-C digestion, DIA-MS.

B1: MCAD, endogenous human (protein, UniProt P11310 26-421)
chain: KANRQREPGLGFSFEFTEQQKEFQATARKFAREEIIPVAAEYDKTGEYPVPLIRRAWELGLMNTHIPENCGGLGLGTFDACLISEELAYGCTGVQTAIEGNSLGQMPIIIAGNDQQKKKYLGRMTEEPLMCAYCVTEPGAGSDVAGIKTKAEKKGDEYIINGQKMWITNGGKANWYFLLARSDPDPKAPANKAFTGFIVEADTPGIQIGRKELNMGQRCSDTRGIVFEDVKVPKENVLIGDGAGFKVAMGAFDKTRPVVAAGAVGLAQRALDEATKYALERKTFGKLLVEHQAISFMLAEMAMKVELARMSYQRAAWEVDSGRRNTYYASIAKAFAGDIANQLATDAVQILGGNGFNTEYPVEKLMRDAKIYQIYEGTSQIQRLIVAREHIDKYKN
As for B1, the binding entry is “binds”.
